The list is a part of this screen's results and no random one: it gathers tests that were run many times, whatever their T/C, doses with no T/C, and many T/C values between a quarter and a half above the control. Other doses and runs of a compound stand elsewhere. T/C gives the treated animals as a percentage of the vehicle group. Some entries give survivors of the animals treated and no T/C: the source holds a T/C of zero for them, seemingly a mark for toxic or unscored doses. Some survivor counts are full or nearly so, which does not show that the dose was tolerated: survival well below the control is almost never listed, so the zero probably covers shortened survival too. Survivors were counted at the toxicity check, usually on the fifth day, unless a day is given; later deaths do not show. Schedule codes are those of the source, taken here to give the interval after Q, in days (D) or hours (H), and the number of doses after X. Some entries were tested several times; their values stand side by side, smallest first. Some schedule codes hold Z or #, which are not explained here. Marks such as (2×) stand for listed records that agree. Where survival is the endpoint, this PubChem deposit counts one and a half times the control or more as active, and values a quarter to a half above the control carry no call in these data; other NCI protocols may use other cut-offs. Some T/C values are followed by the survivors on the day toxicity was checked, most often the fifth; where none is given, no animal had died by that day.
Test system: L1210 leukemia ip in BDF1 mice, survival T/C
Test: NCI In Vivo Anticancer Drug Screen. Data for tumor model L1210 Leukemia (intraperitoneal) in B6D2F1 (BDF1) mice
Conditions: higher T/C = longer survival
[1] = T/C endpoint: mean survival time, dose: 50.0 mg/kg/injection, schedule: Q01DX009 (ip), vehicle: carboxymethylcellulose (CMC)
[2] = T/C endpoint: mean survival time, dose: 400.0 mg/kg/injection, schedule: Q04DX003 (ip), vehicle: saline with Tween-80
[3] = T/C endpoint: mean survival time, dose: 400.0 mg/kg/injection, schedule: Q04DX003 (ip), vehicle: Klucel (hydroxypropylcellulose) (HPC)
[4] = T/C endpoint: mean survival time, dose: 400.0 mg/kg/injection, schedule: Q01DX009 (ip), vehicle: saline with Tween-80

Q: For `CC(C)CN(C)/N=N/c1nc[nH]c1C(N)=O`, which T/C (T/C endpoint: mean survival time, dose: 12.5 mg/kg/injection, schedule: Q01DX Z (ip), vehicle: carboxymethylcellulose (CMC)) is on record?
A: 127 % of control

Q: And the T/C (T/C endpoint: mean survival time, dose: 25.0 mg/kg/injection, schedule: Q01DX Z (ip), vehicle: carboxymethylcellulose (CMC))?
A: 144 % of control

Q: What about the T/C (T/C endpoint: mean survival time, dose: 28.0 mg/kg/injection, schedule: Q01DX015 (ip), vehicle: carboxymethylcellulose (CMC)) of the same compound?
A: 126 % of control

Q: What about the T/C (T/C endpoint: mean survival time, dose: 48.0 mg/kg/injection, schedule: Q01DX015 (ip), vehicle: carboxymethylcellulose (CMC)) of the same compound?
A: 137 % of control

Q: And the T/C [1]?
A: 128 % of control

Q: What about the T/C (T/C endpoint: mean survival time, dose: 50.0 mg/kg/injection, schedule: Q01DX Z (ip), vehicle: carboxymethylcellulose (CMC)) of the same compound?
A: 142 % of control

Q: What about the T/C (T/C endpoint: mean survival time, dose: 60.0 mg/kg/injection, schedule: Q01DX009 (ip), vehicle: carboxymethylcellulose (CMC)) of the same compound?
A: 141 % of control

Q: And the T/C (T/C endpoint: mean survival time, dose: 75.0 mg/kg/injection, schedule: Q01DX009 (ip), vehicle: carboxymethylcellulose (CMC))?
A: 137 % of control

Q: What about the survivor count (T/C endpoint: mean survival time, dose: 75.0 mg/kg/injection, schedule: Q01DX Z (ip), vehicle: carboxymethylcellulose (CMC)) of the same compound?
A: 6 of 6

Q: And the T/C (T/C endpoint: mean survival time, dose: 112.0 mg/kg/injection, schedule: Q01DX009 (ip), vehicle: carboxymethylcellulose (CMC))?
A: 141 % of control

Q: And the survivor count (T/C endpoint: mean survival time, dose: 112.0 mg/kg/injection, schedule: Q01DX Z (ip), vehicle: carboxymethylcellulose (CMC))?
A: 6 of 6

Q: What about the survivor count (T/C endpoint: mean survival time, dose: 240.0 mg/kg/injection, schedule: Q01DX009 (ip), vehicle: carboxymethylcellulose (CMC)) of the same compound?
A: 5 of 6

Q: What about the T/C (T/C endpoint: mean survival time, dose: 400.0 mg/kg/injection, schedule: Q01DX001 (ip), vehicle: carboxymethylcellulose (CMC)) of the same compound?
A: 132 % of control [5 of 6 alive]

Q: And the T/C (T/C endpoint: median survival time, dose: 12.5 mg/kg/injection, schedule: Q01DX011 (ip), vehicle: steroid suspending solution)?
A: 137 % of control

Q: What about the T/C (T/C endpoint: median survival time, dose: 25.0 mg/kg/injection, schedule: Q01DX011 (ip), vehicle: steroid suspending solution) of the same compound?
A: 143 % of control

Q: And the T/C (T/C endpoint: median survival time, dose: 50.0 mg/kg/injection, schedule: Q01DX009 (ip), vehicle: steroid suspending solution)?
A: 144 % of control

Q: For `CC(C)/C(=C\c1ccccc1)C(=O)c1ccccc1`, which survivor count [2] is on record?
A: 5 of 6

Q: `CC1CCOS(=O)O1` (stereo not drawn) was tested. Which survivor count (T/C endpoint: mean survival time, dose: 160.0 mg/kg/injection, schedule: Q01DX010 (ip), vehicle: saline) did it give?
A: 2 of 6 and 3 of 6

Q: What about the survivor count (T/C endpoint: mean survival time, dose: 162.0 mg/kg/injection, schedule: Q01DX Z (ip), vehicle: carboxymethylcellulose (CMC)) of the same compound?
A: 6 of 6

Q: And the survivor count (T/C endpoint: mean survival time, dose: 200.0 mg/kg/injection, schedule: Q01DX001 (ip), vehicle: saline)?
A: 1 of 4

Q: And the survivor count (T/C endpoint: mean survival time, dose: 324.0 mg/kg/injection, schedule: Q01DX Z (ip), vehicle: carboxymethylcellulose (CMC))?
A: 1 of 6

Q: What about the survivor count (T/C endpoint: mean survival time, dose: 400.0 mg/kg/injection, schedule: Q01DX001 (ip), vehicle: saline) of the same compound?
A: 0 of 4 (2×)

Q: Which survivor count [3] does the source give for `CC(=O)Nc1ccc(Oc2ccccc2)cc1` here?
A: 4 of 6

Q: Which survivor count (T/C endpoint: mean survival time, dose: 300.0 mg/kg/injection, schedule: Q01DX001 (ip), vehicle: saline) does the source give for `CSc1cccc(Cl)c1` here?
A: 3 of 6

Q: With `NC(N)=N/N=C(\c1ccc(F)cc1)c1ccc(C(F)(F)F)cc1` as the compound, how does the survivor count (T/C endpoint: mean survival time, dose: 75.0 mg/kg/injection, schedule: Q01DX001 (ip), vehicle: other) read?
A: 0 of 6

Q: And the survivor count (T/C endpoint: mean survival time, dose: 150.0 mg/kg/injection, schedule: Q01DX001 (ip), vehicle: other)?
A: 0 of 6

Q: What about the survivor count (T/C endpoint: mean survival time, dose: 300.0 mg/kg/injection, schedule: Q01DX001 (ip), vehicle: other) of the same compound?
A: 0 of 6

Q: What does the source list for `CCCCOc1ccc(Nc2c3ccccc3nc3ccccc23)cc1`?
A: survivor count (T/C endpoint: mean survival time, dose: 200.0 mg/kg/injection, schedule: Q04DX003 (ip), vehicle: Klucel (hydroxypropylcellulose) (HPC)): 1 of 6; survivor count [3]: 1 of 6

Q: How did the survivor count [2] turn out when `O=C(O)Cc1ccc2c3c(ccc([N+](=O)[O-])c13)CC2` was run?
A: 6 of 6

Q: For `COCCCNC(=S)C(=S)NCCCOC`, which survivor count (T/C endpoint: mean survival time, dose: 400.0 mg/kg/injection, schedule: Q04DX002 (ip), vehicle: Klucel (hydroxypropylcellulose) (HPC)) is on record?
A: 1 of 3

Q: What does the source list for `CCC(=O)OC1(c2ccccc2)CCN(CCC(O)c2ccccc2)CC1` (stereo not drawn)?
A: survivor count (T/C endpoint: mean survival time, dose: 50.0 mg/kg/injection, schedule: Q01DX009 (ip), vehicle: Klucel (hydroxypropylcellulose) (HPC)): 3 of 6; survivor count (T/C endpoint: mean survival time, dose: 100.0 mg/kg/injection, schedule: Q01DX009 (ip), vehicle: Klucel (hydroxypropylcellulose) (HPC)): 1 of 6

Q: Which survivor count (T/C endpoint: mean survival time, dose: 75.0 mg/kg/injection, schedule: Q01DX009 (ip), vehicle: Klucel (hydroxypropylcellulose) (HPC)) does the source give for `Oc1ccc2ccccc2c1/C=N/N=C/c1c(O)ccc2ccccc12` here?
A: 6 of 6

Q: And the survivor count (T/C endpoint: mean survival time, dose: 150.0 mg/kg/injection, schedule: Q01DX009 (ip), vehicle: Klucel (hydroxypropylcellulose) (HPC))?
A: 6 of 6

Q: With `O=C(CI)OCC#CCOC(=O)CI` as the compound, how does the survivor count (T/C endpoint: mean survival time, dose: 25.0 mg/kg/injection, schedule: Q01DX009 (ip), vehicle: carboxymethylcellulose (CMC)) read?
A: 3 of 3

Q: What about the survivor count (T/C endpoint: mean survival time, dose: 25.0 mg/kg/injection, schedule: Q04DX002 (ip), vehicle: carboxymethylcellulose (CMC)) of the same compound?
A: 3 of 3

Q: And the survivor count [1]?
A: 2 of 3 and 5 of 6

Q: And the survivor count (T/C endpoint: mean survival time, dose: 100.0 mg/kg/injection, schedule: Q04DX002 (ip), vehicle: carboxymethylcellulose (CMC))?
A: 2 of 3 and 6 of 6

Q: And the survivor count (T/C endpoint: mean survival time, dose: 200.0 mg/kg/injection, schedule: Q04DX002 (ip), vehicle: carboxymethylcellulose (CMC))?
A: 0 of 3 and 1 of 6

Q: And the survivor count (T/C endpoint: mean survival time, dose: 400.0 mg/kg/injection, schedule: Q04DX002 (ip), vehicle: carboxymethylcellulose (CMC))?
A: 1 of 3 and 5 of 6

Q: `CN(C)C(=O)Nc1ccc([N+](=O)[O-])cc1[N+](=O)[O-]` was tested. Which T/C (T/C endpoint: mean survival time, dose: 100.0 mg/kg/injection, schedule: Q04DX002 (ip), vehicle: saline with Tween-80) did it give?
A: 98 (2×), 102, 104 % of control

Q: And the T/C (T/C endpoint: mean survival time, dose: 200.0 mg/kg/injection, schedule: Q04DX002 (ip), vehicle: saline with Tween-80)?
A: 91, 92, 95, 109 % of control

Q: What about the T/C (T/C endpoint: mean survival time, dose: 400.0 mg/kg/injection, schedule: Q04DX002 (ip), vehicle: saline with Tween-80) of the same compound?
A: 91, 97, 98, 137 % of control

Q: Which survivor count [4] does the source give for `COc1cc2c(cc1OC)C(CCN1C(=O)CCC1=O)NCC2` (stereo not drawn) here?
A: 3 of 6

Q: With `CC(=O)NNc1ccccc1Cl` as the compound, how does the survivor count [3] read?
A: 6 of 6

Q: Which survivor count (T/C endpoint: mean survival time, dose: 100.0 mg/kg/injection, schedule: Q01DX009 (ip), vehicle: other) does the source give for `COc1ccc([N+](=O)[O-])cc1NS(=O)(=O)c1ccc(Cl)c([N+](=O)[O-])c1` here?
A: 6 of 6

Q: What about the survivor count (T/C endpoint: mean survival time, dose: 200.0 mg/kg/injection, schedule: Q01DX009 (ip), vehicle: other) of the same compound?
A: 2 of 3 and 4 of 6

Q: What about the survivor count (T/C endpoint: mean survival time, dose: 200.0 mg/kg/injection, schedule: Q01DX009 (ip), vehicle: saline with Tween-80) of the same compound?
A: 3 of 3

Q: And the survivor count (T/C endpoint: mean survival time, dose: 400.0 mg/kg/injection, schedule: Q01DX009 (ip), vehicle: other)?
A: 6 of 6

Q: And the survivor count [4]?
A: 2 of 3

Q: How did the survivor count (T/C endpoint: mean survival time, dose: 150.0 mg/kg/injection, schedule: Q01DX001 (ip), vehicle: carboxymethylcellulose (CMC)) turn out when `COC(=O)/C=C/C(=O)O` was run?
A: 5 of 6

Q: And the survivor count (T/C endpoint: mean survival time, dose: 300.0 mg/kg/injection, schedule: Q01DX001 (ip), vehicle: carboxymethylcellulose (CMC))?
A: 5 of 6

Q: How did the survivor count (T/C endpoint: mean survival time, dose: 27.0 mg/kg/injection, schedule: Q01DX Z (ip), vehicle: methylcellulose (MC)) turn out when `COc1cc([C@@H]2c3cc4c(cc3[C@H](SC(=N)N)[C@H]3COC(=O)[C@H]23)OCO4)cc(OC)c1OC` was run?
A: 0 of 6

Q: And the survivor count (T/C endpoint: mean survival time, dose: 40.0 mg/kg/injection, schedule: Q01DX Z (ip), vehicle: carboxymethylcellulose (CMC))?
A: 2 of 6

Q: What about the survivor count (T/C endpoint: mean survival time, dose: 40.0 mg/kg/injection, schedule: Q01DX Z (ip), vehicle: methylcellulose (MC)) of the same compound?
A: 3 of 6

Q: What about the survivor count (T/C endpoint: mean survival time, dose: 60.0 mg/kg/injection, schedule: Q01DX Z (ip), vehicle: carboxymethylcellulose (CMC)) of the same compound?
A: 1 of 6

Q: What about the survivor count (T/C endpoint: mean survival time, dose: 75.0 mg/kg/injection, schedule: Q01DX Z (ip), vehicle: saline) of the same compound?
A: 1 of 6

Q: And the survivor count (T/C endpoint: mean survival time, dose: 80.0 mg/kg/injection, schedule: Q01DX Z (ip), vehicle: carboxymethylcellulose (CMC))?
A: 1 of 6

Q: And the survivor count (T/C endpoint: mean survival time, dose: 100.0 mg/kg/injection, schedule: Q01DX009 (ip), vehicle: saline)?
A: 0 of 6

Q: And the survivor count (T/C endpoint: mean survival time, dose: 125.0 mg/kg/injection, schedule: Q01DX Z (ip), vehicle: carboxymethylcellulose (CMC))?
A: 0 of 6

Q: And the survivor count (T/C endpoint: mean survival time, dose: 300.0 mg/kg/injection, schedule: Q01DX Z (ip), vehicle: saline)?
A: 0 of 6

Q: What about the survivor count (T/C endpoint: mean survival time, dose: 300.0 mg/kg/injection, schedule: Q04DX003 (ip), vehicle: saline) of the same compound?
A: 1 of 6

Source: PubChem BioAssay AID248 (DTP/NCI, 2004)
